Assay results from paper doi:10.1101/2022.01.17.476689.
Where a chain is given by its changes, count along the chain named. No constants are given. Whether binding was seen depends on the method and setting. Binding seen in cells or lysates may run through a third protein. A result given as binding can be weak or reduced; the word gives no strength.

Legend:
Assay in all cases: split reporter
[1] = target: T1, GALR1 H264^6.52F mutant (NanoBiT construct) (human) (UniProt P47211)
T1 sequence: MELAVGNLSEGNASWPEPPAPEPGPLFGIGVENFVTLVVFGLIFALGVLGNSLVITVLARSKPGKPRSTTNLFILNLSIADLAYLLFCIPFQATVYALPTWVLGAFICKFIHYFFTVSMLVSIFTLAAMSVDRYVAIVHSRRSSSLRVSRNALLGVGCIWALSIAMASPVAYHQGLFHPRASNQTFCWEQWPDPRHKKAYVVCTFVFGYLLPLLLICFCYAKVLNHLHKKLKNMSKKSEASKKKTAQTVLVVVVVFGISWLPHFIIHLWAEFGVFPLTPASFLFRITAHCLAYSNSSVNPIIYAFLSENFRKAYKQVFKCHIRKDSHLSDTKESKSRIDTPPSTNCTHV

[2] = target: T2, GALR1 H263^6.51F mutant (NanoBiT construct) (human) (UniProt P47211)
T2 sequence: T1 sequence with H263F, F264H

[3] = target: T3, GALR1 H267A mutant (NanoBiT construct) (human) (UniProt P47211)
T3 sequence: T1 sequence with F264H, H267A

[4] = target: T4, GALR1 H112^3.29A mutant (NanoBiT construct) (human) (UniProt P47211)
T4 sequence: T1 sequence with H112A, F264H

binding [1]: binds
binding [2]: binds
binding [3]: binds
binding [4]: binds
Substance: mini-Gαo fused at its N-terminus to the large NanoBiT fragment (domain or fragment)
